Entries after “also recorded” stand apart in the source; their conditions may differ.
Test system: Sprague-Dawley rats
Experiment: Biocompatibility study, gel injected into intra-gluteal muscle pocket
Format: in vivo
Settings: 100 μl gel, rat
Experimental: A biocompatibility study was performed on Gly-Val-Ala-Val-Ala-Val-Ala-Glu-Gly-Glu (SEQ ID NO: 4), Gly-Phe-Gly-Phe-Gly-Phe-Gly-Glu-Gly-Glu (SEQ ID NO: 5) and Gly-Phe-Gly-Phe-Gly-Phe-Gly-Gln-Gln-Ser (SEQ ID NO: 8) DPAs. Lyophilized DPA powders were e-beam sterilized in 1.5 cc polypropylene cryovials at 15 KGy. Gels were pre-formed in 1 cc syringes by mixing a 4 wt % DPA solution in water for injection in a 1:1 ratio with DMEM followed by immediate aspiration into the syringe. In the case of the formulations with the Glu-Gly-Glu (SEQ ID NO: 27) sequence in the solubility enhancing region, 10 μl of a sterile 100 mg/cc calcium chloride solution was mixed in before aspiration into the syringe. An intra-gluteal muscle pocket was created in Sprague-Dawley rats after which 100 μl of gel was injected using a catheter fitted to the syringe. Subsequently, the pocket was closed with polyglactin 910 sutures sold under the tradename VICRYL (Ethicon, Somerville, N.J.). Tissue was harvested at 3, 7 and 28 days after implantation.

## CCCCCCCCCCCCCCCC(=O)NC(C(=O)NCC(=O)N[C@@H](Cc1ccccc1)C(=O)NCC(=O)N[C@@H](Cc1ccccc1)C(=O)NCC(=O)N[C@@H](Cc1ccccc1)C(=O)NCC(=O)N[C@@H](CCC(N)=O)C(=O)N[C@@H](CCC(N)=O)C(=O)N[C@@H](CO)C(=O)O)C(=O)NCC(=O)N[C@@H](Cc1ccccc1)C(=O)NCC(=O)N[C@@H](Cc1ccccc1)C(=O)NCC(=O)N[C@@H](Cc1ccccc1)C(=O)NCC(=O)N[C@@H](CCC(N)=O)C(=O)N[C@@H](CCC(N)=O)C(=O)N[C@@H](CO)C(=O)O [Gly-Phe-Gly-Phe-Gly-Phe-Gly-Gln-Gln-Ser]
  Detection of gel at implant site after 28 days: no longer detected
Listed as Gly-Phe-Gly-Phe-Gly-Phe-Gly-Gln-Gly-Gln (SEQ ID NO: 40)
  Detection of gel at implant site after 28 days: no gel could be detected

## CCCCCCCCCCCCCCCC(=O)NC(C(=O)NCC(=O)N[C@H](C(=O)N[C@@H](C)C(=O)N[C@H](C(=O)N[C@@H](C)C(=O)N[C@H](C(=O)N[C@@H](C)C(=O)N[C@@H](CCC(=O)O)C(=O)NCC(=O)N[C@@H](CCC(=O)O)C(=O)O)C(C)C)C(C)C)C(C)C)C(=O)NCC(=O)N[C@H](C(=O)N[C@@H](C)C(=O)N[C@H](C(=O)N[C@@H](C)C(=O)N[C@H](C(=O)N[C@@H](C)C(=O)N[C@@H](CCC(=O)O)C(=O)NCC(=O)N[C@@H](CCC(=O)O)C(=O)O)C(C)C)C(C)C)C(C)C [Gly-Val-Ala-Val-Ala-Val-Ala-Glu-Gly-Glu]
  Detection of gel at implant site after 28 days: no longer detected
Listed as Val-Ala-Val-Ala-Val-Ala-Glu-Gly-Glu (SEQ ID NO: 39)
  Detection of gel at implant site after 28 days: no gel could be detected

## CCCCCCCCCCCCCCCC(=O)NC(C(=O)NCC(=O)N[C@@H](Cc1ccccc1)C(=O)NCC(=O)N[C@@H](Cc1ccccc1)C(=O)NCC(=O)N[C@@H](Cc1ccccc1)C(=O)NCC(=O)N[C@@H](CCC(=O)O)C(=O)NCC(=O)N[C@@H](CCC(=O)O)C(=O)O)C(=O)NCC(=O)N[C@@H](Cc1ccccc1)C(=O)NCC(=O)N[C@@H](Cc1ccccc1)C(=O)NCC(=O)N[C@@H](Cc1ccccc1)C(=O)NCC(=O)N[C@@H](CCC(=O)O)C(=O)NCC(=O)N[C@@H](CCC(=O)O)C(=O)O [Gly-Phe-Gly-Phe-Gly-Phe-Gly-Glu-Gly-Glu]
  Detection of gel at implant site after 28 days: no longer detected; also recorded: no gel could be detected

— patent US8546338B2, “Self-assembling hydrogels based on dicephalic peptide amphiphiles” (Johnson & Johnson Consumer Companies, Inc., priority 2010, dated 2013)
